Test results reported in PMC8187452.
These are yes or no findings as the source states them, for the method shown. For part of these data: Binding seen in cells or lysates may run through a third protein. Some binding calls cover weakened binding; strength is not graded here.

Sequences of proteins named here, by UniProt entry; tags and fusion partners are left off. A change or cut given only in a name is not applied to a line headed by its entry. Residues count along the entry.
UniProt P41151: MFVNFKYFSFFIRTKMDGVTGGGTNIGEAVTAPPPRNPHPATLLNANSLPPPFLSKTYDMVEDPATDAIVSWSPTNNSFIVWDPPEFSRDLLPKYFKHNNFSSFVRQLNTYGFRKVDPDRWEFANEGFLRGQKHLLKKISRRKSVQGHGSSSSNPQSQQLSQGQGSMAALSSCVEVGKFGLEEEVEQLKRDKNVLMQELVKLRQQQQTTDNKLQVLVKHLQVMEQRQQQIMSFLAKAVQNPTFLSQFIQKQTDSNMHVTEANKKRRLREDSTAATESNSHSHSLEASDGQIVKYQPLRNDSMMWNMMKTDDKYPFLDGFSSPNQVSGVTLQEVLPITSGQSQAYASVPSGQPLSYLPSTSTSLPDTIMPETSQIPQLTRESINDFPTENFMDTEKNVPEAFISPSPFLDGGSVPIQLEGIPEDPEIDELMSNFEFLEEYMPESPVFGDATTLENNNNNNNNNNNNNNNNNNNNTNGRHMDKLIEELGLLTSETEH
UniProt O81821: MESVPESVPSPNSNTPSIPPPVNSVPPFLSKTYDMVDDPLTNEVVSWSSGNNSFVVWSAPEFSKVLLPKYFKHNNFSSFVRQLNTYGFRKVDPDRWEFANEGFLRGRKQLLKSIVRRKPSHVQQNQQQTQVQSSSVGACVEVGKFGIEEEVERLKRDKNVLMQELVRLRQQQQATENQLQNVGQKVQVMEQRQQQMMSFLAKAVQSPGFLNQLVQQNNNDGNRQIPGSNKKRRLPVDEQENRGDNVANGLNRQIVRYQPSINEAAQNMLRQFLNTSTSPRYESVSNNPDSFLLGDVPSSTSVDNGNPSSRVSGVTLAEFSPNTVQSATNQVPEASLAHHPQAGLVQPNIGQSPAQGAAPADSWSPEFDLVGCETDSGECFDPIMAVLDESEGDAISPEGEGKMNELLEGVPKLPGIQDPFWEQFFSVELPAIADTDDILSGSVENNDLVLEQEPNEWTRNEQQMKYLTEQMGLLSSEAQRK
UniProt Q9LQM7: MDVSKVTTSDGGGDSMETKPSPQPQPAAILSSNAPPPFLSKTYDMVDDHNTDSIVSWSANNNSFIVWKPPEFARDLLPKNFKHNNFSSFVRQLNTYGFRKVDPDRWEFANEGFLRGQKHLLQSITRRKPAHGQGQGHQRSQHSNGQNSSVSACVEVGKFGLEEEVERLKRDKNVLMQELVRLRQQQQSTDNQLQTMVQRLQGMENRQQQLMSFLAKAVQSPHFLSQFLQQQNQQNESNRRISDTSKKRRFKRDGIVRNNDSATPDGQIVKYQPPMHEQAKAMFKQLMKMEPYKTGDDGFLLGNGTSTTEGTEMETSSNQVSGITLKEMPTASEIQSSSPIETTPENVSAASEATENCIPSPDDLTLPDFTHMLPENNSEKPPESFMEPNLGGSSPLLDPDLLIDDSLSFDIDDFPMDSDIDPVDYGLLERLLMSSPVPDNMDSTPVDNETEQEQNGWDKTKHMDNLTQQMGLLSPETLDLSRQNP
UniProt Q9SV12: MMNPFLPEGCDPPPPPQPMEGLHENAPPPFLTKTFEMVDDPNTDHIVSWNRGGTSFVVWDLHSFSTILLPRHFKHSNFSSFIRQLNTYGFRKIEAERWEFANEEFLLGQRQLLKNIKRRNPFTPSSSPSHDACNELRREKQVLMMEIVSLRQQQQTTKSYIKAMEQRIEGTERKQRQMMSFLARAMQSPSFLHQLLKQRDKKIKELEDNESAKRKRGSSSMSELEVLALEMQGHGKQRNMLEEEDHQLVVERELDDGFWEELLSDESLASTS
UniProt O80982: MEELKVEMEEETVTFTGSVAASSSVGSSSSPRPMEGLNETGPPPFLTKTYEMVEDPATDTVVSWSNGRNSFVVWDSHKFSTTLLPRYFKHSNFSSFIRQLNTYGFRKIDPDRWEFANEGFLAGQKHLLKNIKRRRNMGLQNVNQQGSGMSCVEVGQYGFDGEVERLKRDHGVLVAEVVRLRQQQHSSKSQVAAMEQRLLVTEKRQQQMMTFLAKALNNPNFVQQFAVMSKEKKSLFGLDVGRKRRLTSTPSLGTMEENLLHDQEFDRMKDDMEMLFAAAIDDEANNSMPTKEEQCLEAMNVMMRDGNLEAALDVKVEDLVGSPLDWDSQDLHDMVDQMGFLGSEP
GAL4 DNA-binding domain fusion of HSFA2 aa 1-269 (A2Δ): residues 1-269 of O80982

What was measured:
[1] = target: Halo-tagged HSFA1A (pIX-HALO), in vitro translated (A. thaliana) (UniProt P41151); test: pull-down; pairs of Halo-tagged and FLAG-tagged HSFs co-translated in vitro (TNT wheat germ); incubated overnight with Magne HaloTag beads, washed three times in PBS/0.1% NP-40; blots with anti-FLAG and anti-Halo
[2] = target: Halo-tagged HSFA1B (pIX-HALO), in vitro translated (A. thaliana) (UniProt O81821); test: as above
[3] = target: Halo-tagged HSFA1D (pIX-HALO), in vitro translated (A. thaliana) (UniProt Q9LQM7); test: as above
[4] = target: Halo-tagged HSFA7A (pIX-HALO), in vitro translated (A. thaliana) (UniProt Q9SV12); test: as above
[5] = target: HSFA2-YFP expressed from pHSFA2::HSFA2-YFP (A. thaliana) (UniProt O80982); test: co-IP; seedlings carrying pHSFA2::HSFA2-YFP and pHSFA3::FLAG-HSFA3 in hsfa2 hsfa3-1, sampled after ACC up to 76 h; native extract (50 mM Tris-HCl pH 7.5, 150 mM NaCl, 2% Triton X-100); anti-DYKDDDDK paramagnetic beads 1.5 h at 4 °C for FLAG-HSFA3, reciprocal precipitation of HSFA2-YFP (beads not told); blots with anti-GFP and anti-FLAG
[6] = target: GAL4 DNA-binding domain fusion of HSFA2 aa 1-269 (A2Δ) (A. thaliana) (UniProt O80982); test: two-hybrid; yeast MaV203, pGBKT7 (bait) and pGADT7 (prey); growth on SD-WLH with 50 mM 3-AT, 28 °C; BD fusions truncated (A2Δ aa 1-269, A3Δ aa 1-275)

## 3xFLAG-tagged HSFA3 (pIX-FLAG), in vitro translated (from UniProt Q8GYY1 1-412)
[1]
  binding: binds
[2]
  binding: binds
[3]
  binding: binds
[4]
  binding: binds

## 3xFLAG-HSFA3 (FORGETTER3/HEAT SHOCK …ON FACTOR A3) expressed from pHSFA3::FLAG-HSFA3 (from UniProt Q8GYY1 1-412)
[5]
  binding: binds

## HSFA3 in pGADT7 (yeast two-hybrid prey) (from UniProt Q8GYY1 1-412)
[6]
  binding: binds
